# Measurements as given in paper PMC7946903.
# Results are given in words; binding and its absence hold for the method and conditions named. Binding seen in cells or lysates may run through a third protein. Some results given as binding are weak or reduced against the parent protein; the word gives no strength. Where a sequence is shown, tags or fusion partners need not be part of it.
# Target: TET2 (5mC hydroxylase) (human (endogenous in THP-1 and moDC)) (UniProt Q6N021)
# Assay: co-IP; anti-TET2 (MABE462) covalently coupled to Dynabeads M-270 Epoxy; lysates of THP-1 or moDC 3 h after electroporation with mRNA for 3×FLAG-EGR2 or 3×FLAG-NAB2; 20 mM Tris-HCl pH 7.5, 150 mM NaCl, 1% Triton X-100, 2 mM EDTA; 2.5 h at room temperature; blot with anti-FLAG M2; anti-IgG beads as control
row,binding,Molecule
1,binds,"3×FLAG-EGR2 (early growth response 2, FLAG-tagged, wild-type) (from UniProt P11161 1-476)"
2,binds,"3×FLAG-NAB2 (FLAG-tagged, wild-type) (protein, UniProt Q15742 1-525) MHRAPSPTAEQPPGGGDSARRTLQPRLKPSARAMALPRTLGELQLYRVLQRANLLSYYETFIQQGGDDVQQLCEAGEEEFLEIMALVGMATKPLHVRRLQKALREWATNPGLFSQPVPAVPVSSIPLFKISETAGTRKGSMSNGHGSPGEKAGSARSFSPKSPLELGEKLSPLPGGPGAGDPRIWPGRSTPESDVGAGGEEEAGSPPFSPPAGGGVPEGTGAGGLAAGGTGGGPDRLEPEMVRMVVESVERIFRSFPRGDAGEVTSLLKLNKKLARSVGHIFEMDDNDSQKEEEIRKYSIIYGRFDSKRREGKQLSLHELTINEAAAQFCMRDNTLLLRRVELFSLSRQVARESTYLSSLKGSRLHPEELGGPPLKKLKQEVGEQSHPEIQQPPPGPESYVPPYRPSLEEDSASLSGESLDGHLQAVGSCPRLTPPPADLPLALPAHGLWSRHILQQTLMDEGLRLARLVSHDRVGRLSPCVPAKPPLAEFEEGLLDRCPAPGPHPALVEGRRSSVKVEAEASRQ"
